Results are given in words; binding and its absence hold for the method and conditions named. Binding seen in cells or lysates may run through a third protein. These calls come from enrichment with a bait or labelling near it, and not all partners need be listed.
Target: EXO1-2x-Strep (human) (UniProt Q9UQ84)
Assay: affinity purification with mass spectrometry

Chains of the proteins cited; added tags and fusions are not shown.
UniProt Q9UQ84: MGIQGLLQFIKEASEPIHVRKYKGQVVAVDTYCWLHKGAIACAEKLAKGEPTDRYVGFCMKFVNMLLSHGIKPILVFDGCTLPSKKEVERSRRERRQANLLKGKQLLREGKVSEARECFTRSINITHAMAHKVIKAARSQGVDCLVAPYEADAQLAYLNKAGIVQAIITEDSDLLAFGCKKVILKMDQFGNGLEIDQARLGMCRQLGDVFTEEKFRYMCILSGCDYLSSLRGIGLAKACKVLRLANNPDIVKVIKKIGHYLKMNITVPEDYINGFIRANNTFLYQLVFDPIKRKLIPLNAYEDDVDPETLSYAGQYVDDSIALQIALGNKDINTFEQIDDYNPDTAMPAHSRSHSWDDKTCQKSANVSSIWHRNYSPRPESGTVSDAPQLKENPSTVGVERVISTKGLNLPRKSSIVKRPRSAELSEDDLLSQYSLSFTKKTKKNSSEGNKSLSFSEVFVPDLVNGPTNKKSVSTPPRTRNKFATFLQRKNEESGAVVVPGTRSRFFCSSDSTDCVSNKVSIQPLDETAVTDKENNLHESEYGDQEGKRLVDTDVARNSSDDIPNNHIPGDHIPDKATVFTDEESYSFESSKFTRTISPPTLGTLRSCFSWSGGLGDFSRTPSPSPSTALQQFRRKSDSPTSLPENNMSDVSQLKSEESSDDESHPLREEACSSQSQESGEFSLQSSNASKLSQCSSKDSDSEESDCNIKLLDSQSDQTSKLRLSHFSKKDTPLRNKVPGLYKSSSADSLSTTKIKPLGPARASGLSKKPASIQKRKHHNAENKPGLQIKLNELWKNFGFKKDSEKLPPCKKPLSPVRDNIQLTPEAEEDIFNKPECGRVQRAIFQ
UniProt P62258: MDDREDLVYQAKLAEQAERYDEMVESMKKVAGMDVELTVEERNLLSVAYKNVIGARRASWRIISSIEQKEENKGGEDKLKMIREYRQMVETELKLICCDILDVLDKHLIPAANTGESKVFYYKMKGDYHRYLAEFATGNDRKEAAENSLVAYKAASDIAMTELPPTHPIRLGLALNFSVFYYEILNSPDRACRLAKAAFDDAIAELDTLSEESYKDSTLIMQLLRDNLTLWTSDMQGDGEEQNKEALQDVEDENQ
UniProt P63104: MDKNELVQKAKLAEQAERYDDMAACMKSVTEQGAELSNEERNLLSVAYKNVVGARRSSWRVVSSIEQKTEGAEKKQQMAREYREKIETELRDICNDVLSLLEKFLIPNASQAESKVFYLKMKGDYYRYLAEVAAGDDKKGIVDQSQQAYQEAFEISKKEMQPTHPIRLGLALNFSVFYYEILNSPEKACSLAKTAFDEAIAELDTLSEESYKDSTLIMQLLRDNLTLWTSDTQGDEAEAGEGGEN
UniProt Q14690: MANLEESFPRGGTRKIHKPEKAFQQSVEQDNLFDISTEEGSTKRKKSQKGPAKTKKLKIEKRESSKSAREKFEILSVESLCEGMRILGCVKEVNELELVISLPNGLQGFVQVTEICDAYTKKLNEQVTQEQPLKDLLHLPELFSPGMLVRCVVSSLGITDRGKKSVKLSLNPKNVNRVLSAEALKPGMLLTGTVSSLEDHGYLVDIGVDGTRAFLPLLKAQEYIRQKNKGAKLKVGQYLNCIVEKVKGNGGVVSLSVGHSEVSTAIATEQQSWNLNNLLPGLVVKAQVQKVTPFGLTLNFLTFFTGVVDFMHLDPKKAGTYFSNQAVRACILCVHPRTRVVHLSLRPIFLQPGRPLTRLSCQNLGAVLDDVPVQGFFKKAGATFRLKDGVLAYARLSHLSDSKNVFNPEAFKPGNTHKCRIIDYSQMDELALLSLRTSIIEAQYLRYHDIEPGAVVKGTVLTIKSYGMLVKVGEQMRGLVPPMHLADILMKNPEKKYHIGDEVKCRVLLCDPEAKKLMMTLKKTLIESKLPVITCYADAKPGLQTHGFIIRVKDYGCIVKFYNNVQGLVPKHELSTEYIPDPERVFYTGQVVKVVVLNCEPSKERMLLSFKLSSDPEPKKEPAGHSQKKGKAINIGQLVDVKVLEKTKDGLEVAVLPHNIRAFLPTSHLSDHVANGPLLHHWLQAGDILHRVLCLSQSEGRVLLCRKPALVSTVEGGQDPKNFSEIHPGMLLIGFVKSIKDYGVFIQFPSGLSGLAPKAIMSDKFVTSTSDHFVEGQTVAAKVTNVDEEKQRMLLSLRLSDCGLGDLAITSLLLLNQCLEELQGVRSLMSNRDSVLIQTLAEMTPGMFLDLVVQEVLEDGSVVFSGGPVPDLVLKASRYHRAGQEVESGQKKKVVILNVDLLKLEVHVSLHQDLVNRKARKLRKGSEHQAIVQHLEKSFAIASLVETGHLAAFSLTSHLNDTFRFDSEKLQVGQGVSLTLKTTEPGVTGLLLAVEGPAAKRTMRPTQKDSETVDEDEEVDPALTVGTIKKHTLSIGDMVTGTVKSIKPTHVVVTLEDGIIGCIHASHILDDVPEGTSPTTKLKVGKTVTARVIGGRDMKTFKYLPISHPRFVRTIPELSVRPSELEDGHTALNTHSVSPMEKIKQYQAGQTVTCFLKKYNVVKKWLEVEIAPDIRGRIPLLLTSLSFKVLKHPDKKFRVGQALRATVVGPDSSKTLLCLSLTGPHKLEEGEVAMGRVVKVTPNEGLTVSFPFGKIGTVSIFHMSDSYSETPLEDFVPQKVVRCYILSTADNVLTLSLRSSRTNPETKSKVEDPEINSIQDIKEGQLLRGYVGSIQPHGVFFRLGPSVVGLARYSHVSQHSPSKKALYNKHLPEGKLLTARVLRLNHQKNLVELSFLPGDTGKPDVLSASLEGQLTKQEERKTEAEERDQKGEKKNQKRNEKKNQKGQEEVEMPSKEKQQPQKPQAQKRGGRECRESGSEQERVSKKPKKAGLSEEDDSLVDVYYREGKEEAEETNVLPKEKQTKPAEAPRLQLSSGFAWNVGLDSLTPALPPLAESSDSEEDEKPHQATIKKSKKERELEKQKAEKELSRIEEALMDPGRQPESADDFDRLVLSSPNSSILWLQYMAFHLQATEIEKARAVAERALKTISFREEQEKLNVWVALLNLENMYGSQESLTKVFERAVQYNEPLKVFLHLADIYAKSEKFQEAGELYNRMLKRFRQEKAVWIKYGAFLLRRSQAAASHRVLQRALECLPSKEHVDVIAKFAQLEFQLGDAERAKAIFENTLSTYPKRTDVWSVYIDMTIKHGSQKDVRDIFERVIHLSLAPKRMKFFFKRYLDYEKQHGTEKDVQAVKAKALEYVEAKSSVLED
UniProt O95793: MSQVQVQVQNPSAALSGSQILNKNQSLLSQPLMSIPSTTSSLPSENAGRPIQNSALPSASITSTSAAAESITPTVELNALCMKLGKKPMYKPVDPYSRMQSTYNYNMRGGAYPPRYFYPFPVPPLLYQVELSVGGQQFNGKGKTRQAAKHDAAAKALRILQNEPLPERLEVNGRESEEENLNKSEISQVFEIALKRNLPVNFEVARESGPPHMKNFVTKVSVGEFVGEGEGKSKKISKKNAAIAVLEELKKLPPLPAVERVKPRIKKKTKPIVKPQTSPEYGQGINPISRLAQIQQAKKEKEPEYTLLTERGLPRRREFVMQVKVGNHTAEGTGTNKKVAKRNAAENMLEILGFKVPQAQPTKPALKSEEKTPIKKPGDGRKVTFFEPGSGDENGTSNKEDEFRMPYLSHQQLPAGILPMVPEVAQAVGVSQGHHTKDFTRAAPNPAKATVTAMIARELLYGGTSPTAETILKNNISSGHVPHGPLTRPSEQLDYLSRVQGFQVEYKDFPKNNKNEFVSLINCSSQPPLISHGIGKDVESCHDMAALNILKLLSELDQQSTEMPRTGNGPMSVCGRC
UniProt P38159: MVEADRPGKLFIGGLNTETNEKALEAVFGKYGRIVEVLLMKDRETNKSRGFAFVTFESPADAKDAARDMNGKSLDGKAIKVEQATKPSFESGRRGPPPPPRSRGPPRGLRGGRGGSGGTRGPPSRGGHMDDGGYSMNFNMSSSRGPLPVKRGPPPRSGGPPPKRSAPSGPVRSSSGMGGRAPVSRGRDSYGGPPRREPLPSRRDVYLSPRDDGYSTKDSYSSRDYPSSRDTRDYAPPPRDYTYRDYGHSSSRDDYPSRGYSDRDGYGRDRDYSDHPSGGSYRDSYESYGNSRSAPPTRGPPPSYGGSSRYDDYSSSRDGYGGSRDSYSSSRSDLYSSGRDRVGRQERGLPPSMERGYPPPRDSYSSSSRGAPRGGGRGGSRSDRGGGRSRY
UniProt O60506: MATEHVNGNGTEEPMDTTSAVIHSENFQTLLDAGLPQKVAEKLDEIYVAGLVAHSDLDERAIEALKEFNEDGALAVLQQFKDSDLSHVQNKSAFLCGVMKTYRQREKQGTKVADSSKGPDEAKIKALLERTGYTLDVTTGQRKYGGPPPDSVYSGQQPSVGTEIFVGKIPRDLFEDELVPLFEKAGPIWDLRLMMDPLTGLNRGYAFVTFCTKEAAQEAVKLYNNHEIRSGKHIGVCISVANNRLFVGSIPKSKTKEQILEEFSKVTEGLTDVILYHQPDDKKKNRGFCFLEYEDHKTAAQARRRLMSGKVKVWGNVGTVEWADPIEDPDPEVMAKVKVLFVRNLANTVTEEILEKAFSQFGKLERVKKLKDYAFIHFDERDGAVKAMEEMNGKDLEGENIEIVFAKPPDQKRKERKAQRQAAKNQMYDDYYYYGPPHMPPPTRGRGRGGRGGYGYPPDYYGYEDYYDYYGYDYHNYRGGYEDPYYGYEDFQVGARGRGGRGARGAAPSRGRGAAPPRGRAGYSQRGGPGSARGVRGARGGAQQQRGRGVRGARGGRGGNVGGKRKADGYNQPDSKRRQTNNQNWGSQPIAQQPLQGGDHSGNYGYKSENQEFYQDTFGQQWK
UniProt P31946: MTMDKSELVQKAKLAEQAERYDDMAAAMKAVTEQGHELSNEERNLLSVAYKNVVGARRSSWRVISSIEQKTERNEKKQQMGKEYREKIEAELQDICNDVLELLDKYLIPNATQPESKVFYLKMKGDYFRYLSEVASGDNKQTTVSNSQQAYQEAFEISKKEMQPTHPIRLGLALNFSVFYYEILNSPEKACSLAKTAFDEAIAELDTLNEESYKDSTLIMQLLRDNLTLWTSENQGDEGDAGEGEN
UniProt Q9UNE7: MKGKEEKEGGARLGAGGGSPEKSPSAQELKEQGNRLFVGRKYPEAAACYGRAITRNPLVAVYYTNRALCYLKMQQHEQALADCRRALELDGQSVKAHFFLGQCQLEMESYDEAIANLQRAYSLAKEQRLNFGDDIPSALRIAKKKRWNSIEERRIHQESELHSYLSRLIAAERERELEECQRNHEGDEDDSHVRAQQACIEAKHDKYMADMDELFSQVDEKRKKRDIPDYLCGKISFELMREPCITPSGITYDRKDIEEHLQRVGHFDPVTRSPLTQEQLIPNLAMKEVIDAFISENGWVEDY
UniProt Q5T3I0: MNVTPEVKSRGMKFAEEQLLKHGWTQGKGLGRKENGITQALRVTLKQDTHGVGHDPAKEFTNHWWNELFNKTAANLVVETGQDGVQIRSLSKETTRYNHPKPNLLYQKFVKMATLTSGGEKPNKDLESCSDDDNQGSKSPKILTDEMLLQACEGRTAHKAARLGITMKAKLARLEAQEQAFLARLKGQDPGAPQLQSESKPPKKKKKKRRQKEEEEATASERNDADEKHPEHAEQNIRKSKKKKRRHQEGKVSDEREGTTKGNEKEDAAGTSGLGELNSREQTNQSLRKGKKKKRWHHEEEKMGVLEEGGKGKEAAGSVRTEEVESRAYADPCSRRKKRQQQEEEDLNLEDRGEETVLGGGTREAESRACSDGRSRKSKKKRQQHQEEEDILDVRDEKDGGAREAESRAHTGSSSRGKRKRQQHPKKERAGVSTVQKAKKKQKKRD
UniProt Q5SSJ5: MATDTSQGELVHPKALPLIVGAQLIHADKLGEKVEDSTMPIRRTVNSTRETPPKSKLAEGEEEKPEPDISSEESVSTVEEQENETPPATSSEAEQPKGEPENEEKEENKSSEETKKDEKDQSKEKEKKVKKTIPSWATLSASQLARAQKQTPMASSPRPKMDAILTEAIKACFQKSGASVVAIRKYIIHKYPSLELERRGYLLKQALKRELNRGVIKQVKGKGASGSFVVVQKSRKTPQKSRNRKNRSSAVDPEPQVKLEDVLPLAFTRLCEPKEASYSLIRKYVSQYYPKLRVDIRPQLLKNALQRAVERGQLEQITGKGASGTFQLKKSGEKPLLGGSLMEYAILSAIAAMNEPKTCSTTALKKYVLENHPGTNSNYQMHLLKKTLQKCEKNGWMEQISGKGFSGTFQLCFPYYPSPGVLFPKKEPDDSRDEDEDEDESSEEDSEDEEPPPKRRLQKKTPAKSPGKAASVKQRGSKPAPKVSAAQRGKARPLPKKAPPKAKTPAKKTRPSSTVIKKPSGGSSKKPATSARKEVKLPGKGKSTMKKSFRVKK

Row | binding | Molecule
1 | binds | 14-3-3ε (from UniProt P62258 1-255)
2 | binds | 14-3-3ζ (from UniProt P63104 1-245)
3 | binds | RRP5/PDCD11 (from UniProt Q14690 1-1871)
4 | binds | STAU1 (from UniProt O95793 1-577)
5 | binds | hnRNP-G (from UniProt P38159 1-391)
6 | binds | hnRNP-Q (from UniProt O60506 1-623)
7 | binds | hnRNP-R (protein, UniProt O43390 1-633) MANQVNGNAVQLKEEEEPMDTSSVTHTEHYKTLIEAGLPQKVAERLDEIFQTGLVAYVDLDERAIDALREFNEEGALSVLQQFKESDLSHVQNKSAFLCGVMKTYRQREKQGSKVQESTKGPDEAKIKALLERTGYTLDVTTGQRKYGGPPPDSVYSGVQPGIGTEVFVGKIPRDLYEDELVPLFEKAGPIWDLRLMMDPLSGQNRGYAFITFCGKEAAQEAVKLCDSYEIRPGKHLGVCISVANNRLFVGSIPKNKTKENILEEFSKVTEGLVDVILYHQPDDKKKNRGFCFLEYEDHKSAAQARRRLMSGKVKVWGNVVTVEWADPVEEPDPEVMAKVKVLFVRNLATTVTEEILEKSFSEFGKLERVKKLKDYAFVHFEDRGAAVKAMDEMNGKEIEGEEIEIVLAKPPDKKRKERQAARQASRSTAYEDYYYHPPPRMPPPIRGRGRGGGRGGYGYPPDYYGYEDYYDDYYGYDYHDYRGGYEDPYYGYDDGYAVRGRGGGRGGRGAPPPPRGRGAPPPRGRAGYSQRGAPLGPPRGSRGGRGGPAQQQRGRGSRGSRGNRGGNVGGKRKADGYNQPDSKRRQTNNQQNWGSQPIAQQPLQQGGDYSGNYGYNNDNQEFYQDTYGQQWK
8 | binds | SFRS7 (protein, UniProt Q16629 1-238) MSRYGRYGGETKVYVGNLGTGAGKGELERAFSYYGPLRTVWIARNPPGFAFVEFEDPRDAEDAVRGLDGKVICGSRVRVELSTGMPRRSRFDRPPARRPFDPNDRCYECGEKGHYAYDCHRYSRRRRSRSRSRSHSRSRGRRYSRSRSRSRGRRSRSASPRRSRSISLRRSRSASLRRSRSGSIKGSRYFQSPSRSRSRSRSISRPRSSRSKSRSPSPKRSRSPSGSPRRSASPERMD
9 | binds | PHD-finger protein 6 (protein, UniProt Q8IWS0 1-365) MSSSVEQKKGPTRQRKCGFCKSNRDKECGQLLISENQKVAAHHKCMLFSSALVSSHSDNESLGGFSIEDVQKEIKRGTKLMCSLCHCPGATIGCDVKTCHRTYHYHCALHDKAQIREKPSQGIYMVYCRKHKKTAHNSEADLEESFNEHELEPSSPKSKKKSRKGRPRKTNFKGLSEDTRSTSSHGTDEMESSSYRDRSPHRSSPSDTRPKCGFCHVGEEENEARGKLHIFNAKKAAAHYKCMLFSSGTVQLTTTSRAEFGDFDIKTVLQEIKRGKRMKCTLCSQPGATIGCEIKACVKTYHYHCGVQDKAKYIENMSRGIYKLYCKNHSGNDERDEEDEERESKSRGKVEIDQQQLTQQQLNGN
10 | binds | GNL3 (protein, UniProt Q9BVP2 1-549) MKRPKLKKASKRMTCHKRYKIQKKVREHHRKLRKEAKKRGHKKPRKDPGVPNSAPFKEALLREAELRKQRLEELKQQQKLDRQKELEKKRKLETNPDIKPSNVEPMEKEFGLCKTENKAKSGKQNSKKLYCQELKKVIEASDVVLEVLDARDPLGCRCPQVEEAIVQSGQKKLVLILNKSDLVPKENLESWLNYLKKELPTVVFRASTKPKDKGKITKRVKAKKNAAPFRSEVCFGKEGLWKLLGGFQETCSKAIRVGVIGFPNVGKSSIINSLKQEQMCNVGVSMGLTRSMQVVPLDKQITIIDSPSFIVSPLNSSSALALRSPASIEVVKPMEAASAILSQADARQVVLKYTVPGYRNSLEFFTVLAQRRGMHQKGGIPNVEGAAKLLWSEWTGASLAYYCHPPTSWTPPPYFNESIVVDMKSGFNLEELEKNNAQSIRAIKGPHLANSILFQSSGLTNGIIEEKDIHEELPKRKERKQEEREDDKDSDQETVDEEVDENSSGMFAAEETGEALSEETTAGEQSTRSFILDKIIEEDDAYDFSTDYV

The remaining lines, values behind:

Row | Molecule | binding
11 | 14-3-3β (from UniProt P31946 1-246) | binds
12 | CHIP/STUB1 (from UniProt Q9UNE7 1-303) (enzyme) | binds
13 | GPTC4 (from UniProt Q5T3I0 1-446) | binds
14 | HP1B3 (from UniProt Q5SSJ5 1-553) | binds
15 | cell proliferation-associated antigen (KI67) (from UniProt P46013 1-3256) | binds
16 | RRP1B (protein, UniProt Q14684 1-758) MAPAMQPAEIQFAQRLASSEKGIRDRAVKKLRQYISVKTQRETGGFSQEELLKIWKGLFYCMWVQDEPLLQEELANTIAQLVHAVNNSAAQHLFIQTFWQTMNREWKGIDRLRLDKYYMLIRLVLRQSFEVLKRNGWEESRIKVFLDVLMKEVLCPESQSPNGVRFHFIDIYLDELSKVGGKELLADQNLKFIDPFCKIAAKTKDHTLVQTIARGVFEAIVDQSPFVPEETMEEQKTKVGDGDLSAEEIPENEVSLRRAVSKKKTALGKNHSRKDGLSDERGRDDCGTFEDTGPLLQFDYKAVADRLLEMTSRKNTPHFNRKRLSKLIKKFQDLSEGSSISQLSFAEDISADEDDQILSQGKHKKKGNKLLEKTNLEKEKGSRVFCVEEEDSESSLQKRRRKKKKKHHLQPENPGPGGAAPSLEQNRGREPEASGLKALKARVAEPGAEATSSTGEESGSEHPPAVPMHNKRKRPRKKSPRAHREMLESAVLPPEDMSQSGPSGSHPQGPRGSPTGGAQLLKRKRKLGVVPVNGSGLSTPAWPPLQQEGPPTGPAEGANSHTTLPQRRRLQKKKAGPGSLELCGLPSQKTASLKKRKKMRVMSNLVEHNGVLESEAGQPQALGSSGTCSSLKKQKLRAESDFVKFDTPFLPKPLFFRRAKSSTATHPPGPAVQLNKTPSSSKKVTFGLNRNMTAEFKKTDKSILVSPTGPSRVAFDPEQKPLHGVLKTPTSSPASSPLVAKKPLTTTPRRRPRAMDFF | binds
17 | ZNF655 (protein, UniProt Q8N720 1-491) MEEIPAQEAAGSPRVQFQSLETQSECLSPEPQFVQDTDMEQGLTGDGETREENKLLIPKQKISEEVHSYKVRVGRLKHDITQVPETREVYKSEDRLERLQEILRKFLYLEREFRQITISKETFTSEKNNECHEPEKSFSLDSTIDADQRVLRIQNTDDNDKYDMSFNQNSASGKHEHLNLTEDFQSSECKESLMDLSHLNKWESIPNTEKSYKCDVCGKIFHQSSALTRHQRIHTREKPYKCKECEKSFSQSSSLSRHKRIHTREKPYKCEASDKSCEASDKSCSPSSGIIQHKKIHTRAKSYKCSSCERVFSRSVHLTQHQKIHKEMPCKCTVCGSDFCHTSYLLEHQRVHHEEKAYEYDEYGLAYIKQQGIHFREKPYTCSECGKDFRLNSHLIQHQRIHTGEKAHECNECGKAFSQTSCLIQHHKMHRKEKSYECNEYEGSFSHSSDLILQQEVLTRQKAFDCDVWEKNSSQRAHLVQHQSIHTKENS | binds
18 | SFRS5 (protein, UniProt Q13243 1-272) MSGCRVFIGRLNPAAREKDVERFFKGYGRIRDIDLKRGFGFVEFEDPRDADDAVYELDGKELCSERVTIEHARARSRGGRGRGRYSDRFSSRRPRNDRRNAPPVRTENRLIVENLSSRVSWQDLKDFMRQAGEVTFADAHRPKLNEGVVEFASYGDLKNAIEKLSGKEINGRKIKLIEGSKRHSRSRSRSRSRTRSSSRSRSRSRSRSRKSYSRSRSRSRSRSRSKSRSVSRSPVPEKSQKRGSSSRSKSPASVDRQRSRSRSRSRSVDSGN | binds
